Measured values published in US4826982A, “Quinolonecarboxylic acid derivatives” (Kyorin Pharmaceutical Co., Ltd., priority 1985, dated 1989).
In brackets after ≈: the same amount, converted by molar mass.

Test system: F. varium KYA 8501
Assay: Antibacterial spectrum, MIC
Type: cell-based
Conditions: Fusobacterium varium, KYA8501

Structure (SMILES): O=C(O)c1cn(C2CC2)c2cc(N3CCNCC3)c(F)cc2c1=O [CPFX, ciprofloxacin, reference compound]
- MIC: 25 µg/mL (≈ 75.4 µM)
